The labels stand for the following.
B1: il10ra_site1_sap_27_mot_HHH_b1_04327_000000247_0001_1_20_H_._HHH_b1_04639_af2_0001_0000300033_0000001_0_0001 (protein)
chain: SSSSSDEEEREEIKELLEEAEQIEDPRRLSKLLQEATRIAIQLQDKELLREIWEVVKKLSSSSSS
B2: il10ra_site1_sap_9_mot_47763b419dcba15278d0659274068abf_0001_af2_000000068_0001_35_48_H_._a3670c5829215c526ff869221da29923_0001_0001_0000200005_0000002_0_0001 (protein)
chain: SSSSSEREEVYELIREALELRANGDPEEAEEVLERALKLAEELGSFVFRFAARLALEDIKSSSSS
B3: il10ra_site1_normal_mot_HHH_b2_00943_af2_000000149_0001_1_17_H_._HHH_b2_02724_af2_0001_0000500018_0000002_0 (protein)
chain: SSSSSEEFEELVEEAQRLAKELGDENVLFLIRQVEKAYRRAGDEWAKEALESLLKELEELGSSSS
B4: il10ra_site1_sap_17_mot_ems_3hC_416_0001_000000048_0001_1_19_H_._HHH_b2_07787_af2_0001_0000100005_0000001_1_0001 (protein)
chain: DEELLEEILKKLKQVPNPRVRELAEEAEELLERGDPYKAAQVLLRAIAWAGDPELLQLLWEAVKR
B5: il10ra_site1_normal_mot_HHH_b1_03900_000000129_0001_1_16_H_._HHH_b1_06727_af2_0001_0000800013_0000002_0 (protein)
chain: SSSSSEEEEREAYELIKRVARLLIRGDPERAEELFKELEKLLEELGDPALERALEILERALSSSS
B6: il10ra_site1_sap_22_mot_HHH_b2_00475_000000002_0001_44_57_H_._HHH_b2_03280_0001_0000100002_0000002_1_0001 (protein)
chain: SSSSDRQEIAKLLMEALQLLFNGNPEEAEEVIREARELAEELGDEALEEMLEFIREVIERASSSS
B7: il10ra_site1_sap_15_mot_HHH_b2_03220_af2_000000223_0001_23_40_H_._7f2fc9564206058543fe500fefea0e08_0001_0001_0000600015_0000001_0_0001 (protein)
chain: SSSSDEERARELVEAALRLARQAPDEETLRFMLMAAEMLAKETNDPELEELAKEIEELRESSSSS
B8: il10ra_site1_sap_24_mot_HHH_b1_03763_000000209_0001_22_38_H_._HHH_b2_08112_0001_0000100003_0000001_0_0001 (protein)
chain: SSSSSDELFRLVEEAIERASELRRNGNPEEAERLLEEILELAEELGNRIVIFAIRHLLEAISSSS
B9: il10ra_site1_sap_19_mot_HHH_b1_05704_af2_000000048_0001_1_18_H_._HHH_b2_06557_0001_0000100008_0000001_0_0001_af2pred_0001 (protein)
chain: SSSSDEEREELQELLERIHELLKEGNKEEAEKLIEEAREIAEELNNELARVLIEFLLELLNSSSS
B10: il10ra_site1_normal_mot_8756ee2cf497b5429c717dfc0c0bcfd6_0001_000000186_0001_1_13_H_._HHH_b2_03261_0001_0000300012_0000001_0_af2pred_0001 (protein)
chain: SSSSSSSELAEEVLRLIRRLAEVDEEEREELLERAEKIAEEINNLVLEVQLEFAKKAFSSSSSSS
B11: il10ra_site1_sap_20_mot_39a7b8d0c4c3fc04bafbda6ce6101d3a_0001_1_af2_000000014_0001_34_48_H_._HHH_b2_04505_0001_0000500012_0000002_0_0001_af2pred_0001 (protein)
chain: SSSSSSSDEERVRELLEEAEKIDDEEEFVYVLIRAWAIANQSNNEELRREVEEVAQKLLSSSSSS
B12: il10ra_site1_sap_15_mot_HHH_b1_06804_000000054_0001_40_54_H_._HHH_b2_05376_0001_0000100004_0000001_0_0001 (protein)
chain: SSSSDVEQRVSELLFEAIRLAANGNPEEAEKLVEEAERLAEENNDPELERYVEIAKRFIKNSSSS
B13: il10ra_site1_sap_15_mot_HHH_b1_02080_af2_000000254_0001_23_39_H_._HHH_b1_07440_0001_0000200016_0000001_1_0001_af2pred_0001 (protein)
chain: SSSSSQDELEIRALMRLARAALEQGNPKAAEILLRWALKLAEEINNEELRKEIEELLREVGSSSS
B14: il10ra_site1_normal_mot_HHH_b1_08411_af2_000000053_0001_1_20_H_._HHH_b2_02982_0001_0000200029_0000002_0 (protein)
chain: SSSSQELFELTREAIKQAIELFREGNREEAEELLEEVLKEVREAGNVALEFSLEHLLRALSSSSS
B15: il10ra_site1_sap_18_mot_HHH_b1_06789_af2_000000041_0001_1_20_H_._HHH_b1_02475_0001_0000600043_0000001_0_0001_af2pred_0001 (protein)
chain: SSSSDEEEKEAALAFSKLDLRALELGDRELVKRLFQLLARFWMEGDPRYLEEAEELVEEVGSSSS
B16: il10ra_site1_normal_mot_HHH_b1_02062_000000185_0001_1_20_H_._HHH_b1_05438_0001_0000100002_0000001_0_af2pred_0001 (protein)
chain: SSSSTEESEEIYRLSREAAELYREGNPEEARKLLEEAEEIAEEAGNLNLLAVIEYLLEIINSSSS
B17: il10ra_site1_sap_14_mot_HHH_b1_00952_af2_000000199_0001_44_57_H_._cd66f5cefdcef76786f86471523878d9_0001_0001_0000400011_0000001_0_0001 (protein)
chain: SSSSDREEEESRELLEELEELLKEGDRERFIKLAQEIVRAAYEINDEELLRAVWELVHKFASSSS
B18: il10ra_site1_normal_mot_HHH_b2_02337_000000026_0001_38_52_H_._HHH_b1_04115_0001_0000100005_0000002_0 (protein)
chain: SSSSDREEEVERLIEEAERLLEEGNPEEASRVLQEAVRLAFESRDPELLRLIWELVQRIFNSSSS
B19: il10ra_site1_sap_29_mot_39a7b8d0c4c3fc04bafbda6ce6101d3a_0001_1_af2_000000014_0001_34_48_H_._HHH_b1_06982_af2_0001_0000200007_0000001_0_0001 (protein)
chain: SSSSSSESAEKSVRHFLRAAQHIDDEEYRRLTLWFAEADARAINDPELEELVREILEELLSSSSS
B20: il10ra_site1_normal_mot_22aa8d8ad8dce7f663ea8fa348a52261_0001_000000025_0001_37_51_H_._d0e8961964c3861271c3cee42b2d364a_0001_1_0001_0000300017_0000001_0 (protein)
chain: DEEKEELLIELIAEALGVPPELVEEAIKQLEKQNGDPREALRAIAAAARASAPPELRKQLEEALK
B21: il10ra_site1_normal_mot_HHH_b1_05326_000000242_0001_1_20_H_._HHH_b1_05676_af2_0001_0000200015_0000001_0 (protein)
chain: SSSSDEKQKVLELLREAFRLALRGDDERARELLEEAEKLAEELGDERLRQMIEALLQSLNSSSSS
B22: il10ra_site1_normal_mot_HHH_b2_00984_000000042_0001_1_20_H_._HHH_b2_06427_0001_0000100001_0000002_0 (protein)
chain: SSSSSSDVEEEVEELLEEAKQIDDWRRLSRLLLEATQLAIRANDPELLQEVWRVIKELSSSSSSS
B23: il10ra_site1_sap_21_mot_HHH_b1_08133_000000195_0001_1_19_H_._HHH_b2_02138_0001_0000100003_0000001_0_0001 (protein)
chain: SSSSSSDAVREAQELLREAAQIEDEEERREIVEEALELAEKAGNKILELSIRYLLEKLSSSSSSS
B24: il10ra_site1_normal_mot_HHH_b2_00984_000000042_0001_1_20_H_._HHH_b2_06737_0001_0000100013_0000001_0 (protein)
chain: SSSSSEDEERVEELLEEAKEIEDEREANEVLTEALQLAIQSNDPELLQEVWRVIKELAKRSSSSS

The list shows a part of the results.

Results on 24 molecules are retold here after PMC10163288.

For the assay, the target named is il10ra, Q13651. Description: yeast display titration.
Turning to B1, the “apparent Kd” value was “inactive: no binding seen”.

Consider B2, for which the “apparent Kd” value was “inactive: no binding seen”.

As to B3, the “apparent Kd” value is “inactive: no binding seen”.

With B4, the “apparent Kd” value is “inactive: no binding seen”.

As for B5, the “apparent Kd” value is “inactive: no binding seen”.

With B6, the “apparent Kd” value was “inactive: no binding seen”.

Take B7: the “apparent Kd” value was “inactive: no binding seen”.

As for B8, the “apparent Kd” value was “inactive: no binding seen”.

For the molecule B9, the “apparent Kd” value is “inactive: no binding seen”.

For B10, the “apparent Kd” value is “inactive: no binding seen”.

Consider B11, for which the “apparent Kd” value was “inactive: no binding seen”.

For the molecule B12, the “apparent Kd” value is “inactive: no binding seen”.

Consider B13, for which the “apparent Kd” value is “inactive: no binding seen”.

As for B14, the “apparent Kd” value was “inactive: no binding seen”.

Turning to B15, the “apparent Kd” value was “inactive: no binding seen”.

For the molecule B16, the “apparent Kd” value was “inactive: no binding seen”.

Take B17: the “apparent Kd” value is “inactive: no binding seen”.

Take B18: the “apparent Kd” value was “inactive: no binding seen”.

Take B19: the “apparent Kd” value was “inactive: no binding seen”.

As for B20, the “apparent Kd” value was “inactive: no binding seen”.

For B21, the “apparent Kd” value was “inactive: no binding seen”.

With B22, the “apparent Kd” value is “inactive: no binding seen”.

For B23, the “apparent Kd” value is “inactive: no binding seen”.

B24: the “apparent Kd” value was “inactive: no binding seen”.
